Measured values as given in publication PMC6301718, “CDHR3 extracellular domains EC1-3 mediate rhinovirus C interaction with cells and as recombinant derivatives, are inhibitory to virus infection” (PLoS Pathogens, 2018).
No constants are given. Whether binding was seen depends on the method and setting.

Amino acid sequences for entries named in this document (tags omitted). A change or cut given only in a name is not applied to a line headed by its entry. Chains listed by the source or under a name are the forms on record and can include a tag or linker. Residues count along the entry.
rEC1 (CDHR3 residues 20–130) (Q6ZTQ4, residues 20-130): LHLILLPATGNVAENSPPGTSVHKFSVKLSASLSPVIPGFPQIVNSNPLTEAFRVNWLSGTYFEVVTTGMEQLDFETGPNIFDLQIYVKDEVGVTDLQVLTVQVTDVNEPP
rEC1 W76A (CDHR3 residues 20–130, W76A) (Q6ZTQ4, form named): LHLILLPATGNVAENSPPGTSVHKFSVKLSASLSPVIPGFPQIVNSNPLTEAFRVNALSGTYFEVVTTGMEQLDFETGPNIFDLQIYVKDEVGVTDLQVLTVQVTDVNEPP

What was measured:
[1] = molecular target: rEC1 (CDHR3 residues 20–130) (human) (UniProt Q6ZTQ4); experiment: SEC; HiPrep 16/60 Sephacryl S200, refolded protein 0.5–1.5 mg, 1 mL/min, 20 mM Tris (pH 8.0), 137 mM NaCl, 2 mM CaCl2; both purified
[2] = molecular target: rEC1 W76A (CDHR3 residues 20–130, W76A) (human) (UniProt Q6ZTQ4); experiment: as above

| Substance | binding [1] | binding [2] |
| --- | --- | --- |
| rEC1 (CDHR3 residues 20–130) (from UniProt Q6ZTQ4 20-130) (domain or fragment) | no binding |  |
| rEC1 W76A (CDHR3 residues 20–130, W76A) (from UniProt Q6ZTQ4 20-130) (domain or fragment) |  | no binding |
